Measurements published in patent US20080269291A1, “Chemical Compounds” (priority 2005, published 2008).
Structures can show the parent of a compound that is named as a salt. Some entries share one result that the patent states for a list of compounds.

What follows are molecules tested against T1, Recombinant human IKKβ (residues 1-737) (Homo sapiens, UniProt O14920) (assay: IKK2 Assay (TR-FRET)). Conditions: activity against IKK2, IKK2 5 nM, GST-IκBα substrate 25 nM, ATP 1 μM, 30 minutes at room temperature.
T1 construct: Recombinant human IKKβ (residues 1-737); GST (C); made in house
T1 sequence (O14920 1-737): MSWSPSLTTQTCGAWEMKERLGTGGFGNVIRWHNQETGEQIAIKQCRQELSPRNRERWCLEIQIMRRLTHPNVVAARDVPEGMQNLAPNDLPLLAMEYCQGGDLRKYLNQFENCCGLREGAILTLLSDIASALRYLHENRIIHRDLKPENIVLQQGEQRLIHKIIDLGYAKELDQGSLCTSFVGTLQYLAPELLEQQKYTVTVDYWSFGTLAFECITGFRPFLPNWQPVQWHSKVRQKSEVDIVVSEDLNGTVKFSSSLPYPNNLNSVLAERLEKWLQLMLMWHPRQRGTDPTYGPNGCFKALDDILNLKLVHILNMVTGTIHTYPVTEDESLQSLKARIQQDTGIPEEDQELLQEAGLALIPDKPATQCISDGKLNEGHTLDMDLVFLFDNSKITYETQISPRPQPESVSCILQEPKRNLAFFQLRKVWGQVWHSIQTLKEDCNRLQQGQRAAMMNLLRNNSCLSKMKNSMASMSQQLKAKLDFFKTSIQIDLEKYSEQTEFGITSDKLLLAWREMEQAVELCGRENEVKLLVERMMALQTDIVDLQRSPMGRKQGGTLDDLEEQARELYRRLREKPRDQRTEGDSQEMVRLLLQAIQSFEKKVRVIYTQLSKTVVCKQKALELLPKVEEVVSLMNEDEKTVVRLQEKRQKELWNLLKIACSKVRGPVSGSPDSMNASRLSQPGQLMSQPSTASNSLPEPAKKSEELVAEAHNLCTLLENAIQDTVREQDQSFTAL
Assay type: biochemical
Method: Recombinant human IKKβ (residues 1-737) was expressed in baculovirus as a C-terminal GST-tagged fusion protein, and its activity was assessed using a time-resolved fluorescence resonance energy transfer (TR-FRET) assay. Briefly, IKK2 (5 nM final) diluted in assay buffer (50 mM HEPES, 10 mM MgCl2, 1 mM CHAPS pH 7.4 with 1 mM DTT and 0.01% w/v BSA) was added to wells containing various concentrations of compound or DMSO vehicle (3% final). The reaction was initiated by the addition of GST-IκBα substrate (25 nM final)/ATP (1 μM final), in a total volume of 30 μL. The reaction was incubated for 30 minutes at room temperature, then terminated by the addition of 15 μL of 50 mM EDTA. Detection reagent (15 μl) in buffer (100 mM HEPES pH 7.4, 150 mM NaCl and 0.1% w/v BSA) containing antiphosphoserine-licBa-32/36 monoclonal antibody 12C2 (Cell Signalling Technology, Beverly Mass., USA) labelled with W-1024 europium chelate (Wallac OY, Turku, Finland), and an APC-labelled anti-GST antibody (Prozyme, San Leandro, Calif., USA) was added and the reaction was further incubated for 60 minutes at room temperature. The degree of phosphorylation of GST-IκBα was measured using a Packard Discovery plate reader (Perkin-Elmer Life Sciences, Pangbourne, UK) as a ratio of specific 665 nm energy transfer signal to reference europium 620 nm signal.

Q: Which pIC50 does the source give for CCN(CC)c1cccc(Oc2cc(C(N)=O)c3[nH]cc(C4CCN(S(=O)(=O)CC)CC4)c3c2)c1 [Example 31, 5-{[3-(diethylamino)phenyl]oxy}-3-[1-(ethylsulfonyl)-4-piperidinyl]-1H-indole-7-carboxamide] here?
A: The pIC50 was at least 5.0.

Q: For CCS(=O)(=O)N1CCC(c2c[nH]c3c(C(N)=O)cc(Oc4ccc(F)cc4)cc23)CC1 [Example 32, 3-[1-(ethylsulfonyl)-4-piperidinyl]-5-[(4-fluorophenyl)oxy]-1H-indole-7-carboxamide], which pIC50 is on record?
A: The pIC50 was at least 5.0.

Q: Which pIC50 does the source give for CCS(=O)(=O)N1CCC(c2c[nH]c3c(C(N)=O)cc(NCC(C)C)cc23)CC1 [Example 33, 3-[1-(ethylsulfonyl)-4-piperidinyl]-5-[(2-methylpropyl)amino]-1H-indole-7-carboxamide] here?
A: Its pIC50 is at least 5.0.

Q: For CCS(=O)(=O)N1CCC(c2c[nH]c3c(C(N)=O)cc(N(C)c4ccccc4)cc23)CC1 [Example 34, 3-[1-(ethylsulfonyl)-4-piperidinyl]-5-[methyl(phenyl)amino]-1H-indole-7-carboxamide], which pIC50 is on record?
A: Its pIC50 is at least 5.0.

Q: How did the pIC50 turn out when CCS(=O)(=O)N1CCC(c2c[nH]c3c(C(N)=O)cc(Sc4ccccc4)cc23)CC1 [Example 35, 3-[1-(ethylsulfonyl)piperidin-4-yl]-5-(phenylthio)-1H-indole-7-carboxamide] was run?
A: Its pIC50 is at least 5.0.

Q: Which pIC50 does the source give for CCS(=O)(=O)N1CCC(c2c[nH]c3c(C(N)=O)cc(Sc4ccc(Cl)cc4)cc23)CC1 [Example 36, 5-[(4-chlorophenyl)thio]-3-[1-(ethylsulfonyl)-4-piperidinyl]-1H-indole-7-carboxamide] here?
A: Its pIC50 is at least 5.0.

Q: For CCS(=O)(=O)N1CCC(c2c[nH]c3c(C(N)=O)cc(Sc4ccccc4Cl)cc23)CC1 [Example 37, 5-[(2-chlorophenyl)thio]-3-[1-(ethylsulfonyl)-4-piperidinyl]-1H-indole-7-carboxamide], which pIC50 is on record?
A: The pIC50 was at least 5.0.

Q: How did the pIC50 turn out when CCS(=O)(=O)N1CCC(c2c[nH]c3c(C(N)=O)cc(Sc4ccc(C)cc4)cc23)CC1 [Example 38, 3-[1-(ethylsulfonyl)-4-piperidinyl]-5-[(4-methylphenyl)thio]-1H-indole-7-carboxamide] was run?
A: Its pIC50 is at least 5.0.

Q: CCS(=O)(=O)N1CCC(c2c[nH]c3c(C(N)=O)cc(Sc4ccc(F)cc4)cc23)CC1 [Example 39, 3-[1-(ethylsulfonyl)-4-piperidinyl]-5-[(4-fluorophenyl)thio]-1H-indole-7-carboxamide] was tested. Which pIC50 did it give?
A: Its pIC50 is at least 5.0.

Q: How did the pIC50 turn out when CCS(=O)(=O)N1CCC(c2c[nH]c3c(C(N)=O)cc(Sc4cccc(F)c4)cc23)CC1 [Example 40, 3-[1-(ethylsulfonyl)-4-piperidinyl]-5-[(3-fluorophenyl)thio]-1H-indole-7-carboxamide] was run?
A: Its pIC50 is at least 5.0.

Q: CCS(=O)(=O)N1CCC(c2c[nH]c3c(C(N)=O)cc(Sc4ccccc4F)cc23)CC1 [Example 42, 3-[1-(ethylsulfonyl)-4-piperidinyl]-5-[(2-fluorophenyl)thio]-1H-indole-7-carboxamide] was tested. Which pIC50 did it give?
A: The pIC50 was at least 5.0.

Q: CCS(=O)(=O)N1CCC(c2c[nH]c3c(C(N)=O)cc(Sc4cccc(C)c4)cc23)CC1 [Example 43, 3-[1-(ethylsulfonyl)-4-piperidinyl]-5-[(3-methylphenyl)thio]-1H-indole-7-carboxamide] was tested. Which pIC50 did it give?
A: Its pIC50 is at least 5.0.

Q: Which pIC50 does the source give for CCN(CC)CCSc1cc(C(N)=O)c2[nH]cc(C3CCN(S(=O)(=O)CC)CC3)c2c1 [Example 44, 5-{[2-(diethylamino)ethyl]thio}-3-[1-(ethylsulfonyl)-4-piperidinyl]-1H-indole-7-carboxamide trifluoroacetate] here?
A: The pIC50 was at least 5.0.

Q: How did the pIC50 turn out when CCS(=O)(=O)N1CCC(c2c[nH]c3c(C(N)=O)cc(Sc4ccc(Cl)cc4Cl)cc23)CC1 [Example 45, 5-[(2,4-dichlorophenyl)thio]-3-[1-(ethylsulfonyl)-4-piperidinyl]-1H-indole-7-carboxamide] was run?
A: The pIC50 was at least 5.0.

Q: For CCS(=O)(=O)N1CCC(c2c[nH]c3c(C(N)=O)cc(SCC(C)C)cc23)CC1 [Example 46, 3-∂1-(ethylsulfonyl)-4-piperidinyl-5-[(2-methylpropyl)thio]-1H-indole-7-carboxamide], which pIC50 is on record?
A: The pIC50 was at least 5.0.

Q: CCS(=O)(=O)N1CCC(c2c[nH]c3c(C(N)=O)cc(Sc4ccc(NC(C)=O)cc4)cc23)CC1 [Example 47, 5-{[4-(acetylamino)phenyl]thio}-3-[1-(ethylsulfonyl)-4-piperidinyl]-1H-indole-7-carboxamide] was tested. Which pIC50 did it give?
A: Its pIC50 is at least 5.0.

Q: For CCS(=O)(=O)N1CCC(c2c[nH]c3c(C(N)=O)cc(S(=O)(=O)c4ccc(C)cc4)cc23)CC1 [Example 48, 3-[1-(ethylsulfonyl)-4-piperidinyl]-5-[(4-methylphenyl)sulfonyl]-1H-indole-7-carboxamide], which pIC50 is on record?
A: The pIC50 was at least 5.0.

Q: With CCS(=O)(=O)N1CCC(c2c[nH]c3c(C(N)=O)cc(S(=O)(=O)c4cccc(F)c4)cc23)CC1 [Example 49, 3-[1-(ethylsulfonyl)-4-piperidinyl]-5-[(3-fluorophenyl)sulfonyl]-1H-indole-7-carboxamide] as the molecule, how does the pIC50 read?
A: Its pIC50 is at least 5.0.

Q: For CCS(=O)(=O)N1CCC(c2c[nH]c3c(C(N)=O)cc(S(=O)(=O)c4ccc(NC(C)=O)cc4)cc23)CC1 [Example 50, 5-{[4-(acetylamino)phenyl]sulfonyl}-3-[1-(ethylsulfonyl)-4-piperidinyl]-1H-indole-7-carboxamide], which pIC50 is on record?
A: Its pIC50 is at least 5.0.
